In ChEMBL document CHEMBL1139298, “Synthesis and biological evaluation of novel 2,4,5-substituted pyrimidine derivatives for anticancer activity” (Bioorg Med Chem Lett, 2009):

Tested on: A549
Experiment: Cytotoxicity against human A549 cells […] by SRB assay
Format: functional, cell-based
Details: A549, 72 h

Question: `COc1cccc2c1C(=O)c1c(O)c3c(c(O)c1C2=O)C[C@@](O)(C(=O)CO)C[C@@H]3O[C@H]1C[C@H](N)[C@H](O)[C@H](C)O1` [DOXORUBICIN] was tested. Which IC50 did it give?
Answer: Its IC50 is 0.025 µM.
